The source of these data is publication PMC7672062.

By UniProt entry, the sequences of proteins in these tests, tags left out.
UniProt Q8WUY9: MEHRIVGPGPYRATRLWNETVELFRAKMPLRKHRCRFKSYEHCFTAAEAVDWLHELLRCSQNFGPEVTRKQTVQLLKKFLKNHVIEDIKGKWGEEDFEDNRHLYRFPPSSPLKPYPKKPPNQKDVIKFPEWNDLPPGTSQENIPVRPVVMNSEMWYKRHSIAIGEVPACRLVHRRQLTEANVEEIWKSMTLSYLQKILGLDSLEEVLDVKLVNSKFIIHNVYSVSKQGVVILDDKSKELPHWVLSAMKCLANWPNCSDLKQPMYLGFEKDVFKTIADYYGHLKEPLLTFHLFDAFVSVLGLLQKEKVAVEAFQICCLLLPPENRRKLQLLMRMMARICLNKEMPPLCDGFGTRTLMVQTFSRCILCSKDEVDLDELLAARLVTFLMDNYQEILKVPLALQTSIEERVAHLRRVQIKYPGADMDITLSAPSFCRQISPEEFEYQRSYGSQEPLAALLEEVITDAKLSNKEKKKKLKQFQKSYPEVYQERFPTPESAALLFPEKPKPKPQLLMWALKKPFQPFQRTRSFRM

For this test, the target named is DEP domain protein 1B (DEPDC1B) (UniProt Q8WUY9). Nature of the test: co-IP; precipitated with DEPDC1B antibody, SHC1 detected in the precipitate; cells and conditions not stated.

No constants are given. Whether binding was seen depends on the method and setting. In cells and extracts the contact can be indirect. Some results given as binding are weak or reduced against the parent protein; the word gives no strength.

B1: SHC1 (Src homology 2 domain containing transforming protein 1) (protein, UniProt P29353 1-583)
chain: MDLLPPKPKYNPLRNESLSSLEEGASGSTPPEELPSPSASSLGPILPPLPGDDSPTTLCSFFPRMSNLRLANPAGGRPGSKGEPGRAADDGEGIVGAAMPDSGPLPLLQDMNKLSGGGGRRTRVEGGQLGGEEWTRHGSFVNKPTRGWLHPNDKVMGPGVSYLVRYMGCVEVLQSMRALDFNTRTQVTREAISLVCEAVPGAKGATRRRKPCSRPLSSILGRSNLKFAGMPITLTVSTSSLNLMAADCKQIIANHHMQSISFASGGDPDTAEYVAYVAKDPVNQRACHILECPEGLAQDVISTIGQAFELRFKQYLRNPPKLVTPHDRMAGFDGSAWDEEEEEPPDHQYYNDFPGKEPPLGGVVDMRLREGAAPGAARPTAPNAQTPSHLGATLPVGQPVGGDPEVRKQMPPPPPCPGRELFDDPSYVNVQNLDKARQAVGGAGPPNPAINGSAPRDLFDMKPFEDALRVPPPPQSVSMAEQLRGEPWFHGKLSRREAEALLQLNGDFLVRESTTTPGQYVLTGLQSGQPKHLLLVDPEGVVRTKDHRFESVSHLISYHMDNHLPIISAGSELCLQQPVERKL
As to B1, the binding entry was “binds”.
